Experimental findings from patent US7320804B2, “Cough depressant composition containing iron for angiotensin-converting enzyme inhibitor inducing cough” (Samsung Life Public Welfare Foundation Samsund Medical …, priority 2000, dated 2008) are described below.

Read-outs that look alike come from different tables or passages of the source.

The conditions of this data set: for Ferritin concentration: pretreatment 68.15 ± 32.86.

As to `O=S(=O)([O-])[O-].[Fe+2]` [Iron, ferrous sulphate], the “Difference in hemoglobin, hematocrit, iron concentration, TIBC and ferritin concentration between iron taking group and placebo taking group (in words)” value (blood samples before and after treatment) was “no significant difference”. Further, the Hemoglobin (posttreatment, after 4 weeks of iron, pretreatment 13.43 ± 0.81) is 13.63 ± 0.60 mg/dL. For the same compound, the Hematocrit (posttreatment, after 4 weeks of iron, pretreatment 39.58 ± 2.65) worked out at 40.78 ± 2.51%. Moreover, the Ferritin concentration by setting is: (posttreatment, after 4 weeks of iron) 86.03 ± 25.78 mg/dL; (posttreatment, after 4 weeks of iron, listed as iron) 86.03 ± 25.78 mg/dL. In addition, the Iron concentration (posttreatment, after 4 weeks of iron, pretreatment 74.75 ± 10.53) was found to be 83.75 ± 16.07 mg/dL. Moreover, the “TIBC (total iron binding capacity)” value (posttreatment, after 4 weeks of iron, pretreatment 312.5 ± 28.1) was determined as 320.3 ± 11.9 mg/dL.
